Some of the results follow.

Protein sequences, listed by entry. Tags and fused reporters are not part of them. Lines headed by an entry give the natural chain unless they say otherwise; changes in a name come on top.
UniProt O60739, whole entry, looked up: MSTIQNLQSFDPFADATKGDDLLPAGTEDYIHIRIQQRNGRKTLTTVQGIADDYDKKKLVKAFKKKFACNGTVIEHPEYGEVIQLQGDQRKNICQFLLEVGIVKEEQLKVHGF
UniProt O60869: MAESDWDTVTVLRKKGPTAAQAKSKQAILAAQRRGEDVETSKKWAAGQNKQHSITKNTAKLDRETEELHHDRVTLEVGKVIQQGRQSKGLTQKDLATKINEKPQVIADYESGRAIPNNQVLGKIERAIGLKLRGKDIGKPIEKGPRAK
UniProt Q96C19: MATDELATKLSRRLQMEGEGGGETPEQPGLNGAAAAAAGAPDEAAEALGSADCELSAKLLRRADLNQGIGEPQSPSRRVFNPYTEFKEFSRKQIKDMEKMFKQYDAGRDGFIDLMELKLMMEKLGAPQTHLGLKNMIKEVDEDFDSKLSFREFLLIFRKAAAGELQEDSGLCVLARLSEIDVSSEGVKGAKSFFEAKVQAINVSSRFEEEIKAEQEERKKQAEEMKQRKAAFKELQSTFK
UniProt Q6V1X1: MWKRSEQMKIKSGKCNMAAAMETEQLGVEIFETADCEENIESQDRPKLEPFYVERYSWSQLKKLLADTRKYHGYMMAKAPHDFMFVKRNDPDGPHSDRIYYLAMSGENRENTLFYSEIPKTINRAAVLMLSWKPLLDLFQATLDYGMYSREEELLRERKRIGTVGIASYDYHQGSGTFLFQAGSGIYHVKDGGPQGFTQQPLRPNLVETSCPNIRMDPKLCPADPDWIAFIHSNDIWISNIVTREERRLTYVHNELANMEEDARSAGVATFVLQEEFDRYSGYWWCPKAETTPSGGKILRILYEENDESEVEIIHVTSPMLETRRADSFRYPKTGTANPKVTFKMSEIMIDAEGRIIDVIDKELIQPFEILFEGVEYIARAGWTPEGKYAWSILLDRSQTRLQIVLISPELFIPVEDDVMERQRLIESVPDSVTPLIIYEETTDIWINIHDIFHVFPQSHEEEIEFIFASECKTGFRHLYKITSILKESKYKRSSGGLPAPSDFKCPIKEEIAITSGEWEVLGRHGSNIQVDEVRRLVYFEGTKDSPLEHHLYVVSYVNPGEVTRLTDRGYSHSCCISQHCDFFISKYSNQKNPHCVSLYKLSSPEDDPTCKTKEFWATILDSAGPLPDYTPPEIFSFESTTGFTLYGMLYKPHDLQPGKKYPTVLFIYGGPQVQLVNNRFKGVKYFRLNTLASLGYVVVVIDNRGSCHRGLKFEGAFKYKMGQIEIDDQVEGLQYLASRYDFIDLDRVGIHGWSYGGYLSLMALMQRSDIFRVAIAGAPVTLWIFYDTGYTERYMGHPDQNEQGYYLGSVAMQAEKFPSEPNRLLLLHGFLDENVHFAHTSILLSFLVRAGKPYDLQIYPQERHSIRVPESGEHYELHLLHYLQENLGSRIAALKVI
UniProt Q9H410: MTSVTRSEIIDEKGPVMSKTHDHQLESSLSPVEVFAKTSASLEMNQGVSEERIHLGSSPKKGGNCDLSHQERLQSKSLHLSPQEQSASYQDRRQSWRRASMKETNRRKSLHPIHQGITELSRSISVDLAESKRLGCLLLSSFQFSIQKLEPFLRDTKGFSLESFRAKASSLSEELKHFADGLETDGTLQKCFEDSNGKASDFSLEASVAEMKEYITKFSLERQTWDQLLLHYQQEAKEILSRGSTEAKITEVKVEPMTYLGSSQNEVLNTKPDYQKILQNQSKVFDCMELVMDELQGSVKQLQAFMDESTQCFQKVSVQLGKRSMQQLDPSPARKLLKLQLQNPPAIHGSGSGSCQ
UniProt O95620: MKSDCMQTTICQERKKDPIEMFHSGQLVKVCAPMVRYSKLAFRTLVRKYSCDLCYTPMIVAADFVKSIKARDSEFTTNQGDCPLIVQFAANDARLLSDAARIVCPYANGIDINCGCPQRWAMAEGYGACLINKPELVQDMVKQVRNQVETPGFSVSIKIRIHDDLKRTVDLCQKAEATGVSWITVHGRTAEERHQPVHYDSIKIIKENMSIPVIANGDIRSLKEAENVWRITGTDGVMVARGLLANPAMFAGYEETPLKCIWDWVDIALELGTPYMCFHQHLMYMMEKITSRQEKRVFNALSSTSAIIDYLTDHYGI
UniProt O43324: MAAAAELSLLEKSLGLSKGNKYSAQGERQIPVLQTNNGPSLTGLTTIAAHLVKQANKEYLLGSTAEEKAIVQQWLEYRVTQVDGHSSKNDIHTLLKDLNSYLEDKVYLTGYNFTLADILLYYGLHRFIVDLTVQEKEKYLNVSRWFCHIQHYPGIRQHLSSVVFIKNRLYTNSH
EEF1AKMT2, A0A494BZY7, UniProt A0A494BZY7, whole entry, looked up: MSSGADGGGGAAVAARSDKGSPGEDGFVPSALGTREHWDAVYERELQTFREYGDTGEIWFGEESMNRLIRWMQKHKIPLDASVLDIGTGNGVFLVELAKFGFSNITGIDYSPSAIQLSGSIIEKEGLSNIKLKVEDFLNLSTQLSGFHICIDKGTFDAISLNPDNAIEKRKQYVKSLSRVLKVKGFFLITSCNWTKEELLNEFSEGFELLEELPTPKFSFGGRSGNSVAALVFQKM
UniProt Q92611: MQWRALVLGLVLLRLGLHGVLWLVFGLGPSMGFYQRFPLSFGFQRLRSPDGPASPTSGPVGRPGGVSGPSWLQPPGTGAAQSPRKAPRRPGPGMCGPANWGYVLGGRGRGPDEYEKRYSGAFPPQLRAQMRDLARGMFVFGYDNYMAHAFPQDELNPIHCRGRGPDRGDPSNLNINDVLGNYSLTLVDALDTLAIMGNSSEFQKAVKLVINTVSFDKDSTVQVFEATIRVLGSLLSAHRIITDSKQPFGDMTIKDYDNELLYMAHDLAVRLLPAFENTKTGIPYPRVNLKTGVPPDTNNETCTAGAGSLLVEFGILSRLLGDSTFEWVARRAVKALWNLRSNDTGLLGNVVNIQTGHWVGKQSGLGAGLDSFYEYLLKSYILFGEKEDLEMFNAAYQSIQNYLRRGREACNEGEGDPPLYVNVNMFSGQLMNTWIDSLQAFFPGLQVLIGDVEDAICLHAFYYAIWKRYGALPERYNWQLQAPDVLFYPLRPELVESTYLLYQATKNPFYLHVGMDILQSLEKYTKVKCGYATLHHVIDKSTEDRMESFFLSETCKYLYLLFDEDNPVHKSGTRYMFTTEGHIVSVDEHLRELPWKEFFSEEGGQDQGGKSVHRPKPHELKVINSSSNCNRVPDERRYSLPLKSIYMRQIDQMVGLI
UniProt Q96G46: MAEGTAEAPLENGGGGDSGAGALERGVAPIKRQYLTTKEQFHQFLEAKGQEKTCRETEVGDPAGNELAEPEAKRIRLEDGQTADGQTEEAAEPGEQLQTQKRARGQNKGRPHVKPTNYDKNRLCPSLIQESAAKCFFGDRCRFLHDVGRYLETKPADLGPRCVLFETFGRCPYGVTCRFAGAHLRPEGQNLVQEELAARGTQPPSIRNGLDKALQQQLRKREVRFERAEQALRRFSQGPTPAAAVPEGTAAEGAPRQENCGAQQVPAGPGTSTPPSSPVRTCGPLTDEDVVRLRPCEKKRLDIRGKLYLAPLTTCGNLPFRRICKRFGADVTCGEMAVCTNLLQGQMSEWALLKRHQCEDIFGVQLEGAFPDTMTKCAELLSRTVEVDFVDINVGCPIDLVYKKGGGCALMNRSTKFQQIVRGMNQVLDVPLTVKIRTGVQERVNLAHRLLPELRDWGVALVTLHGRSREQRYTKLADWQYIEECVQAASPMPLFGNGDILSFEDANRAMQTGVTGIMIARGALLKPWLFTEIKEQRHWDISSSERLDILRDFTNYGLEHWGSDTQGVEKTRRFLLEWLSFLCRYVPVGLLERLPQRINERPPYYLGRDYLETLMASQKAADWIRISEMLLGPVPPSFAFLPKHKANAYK
UniProt Q8NDI1: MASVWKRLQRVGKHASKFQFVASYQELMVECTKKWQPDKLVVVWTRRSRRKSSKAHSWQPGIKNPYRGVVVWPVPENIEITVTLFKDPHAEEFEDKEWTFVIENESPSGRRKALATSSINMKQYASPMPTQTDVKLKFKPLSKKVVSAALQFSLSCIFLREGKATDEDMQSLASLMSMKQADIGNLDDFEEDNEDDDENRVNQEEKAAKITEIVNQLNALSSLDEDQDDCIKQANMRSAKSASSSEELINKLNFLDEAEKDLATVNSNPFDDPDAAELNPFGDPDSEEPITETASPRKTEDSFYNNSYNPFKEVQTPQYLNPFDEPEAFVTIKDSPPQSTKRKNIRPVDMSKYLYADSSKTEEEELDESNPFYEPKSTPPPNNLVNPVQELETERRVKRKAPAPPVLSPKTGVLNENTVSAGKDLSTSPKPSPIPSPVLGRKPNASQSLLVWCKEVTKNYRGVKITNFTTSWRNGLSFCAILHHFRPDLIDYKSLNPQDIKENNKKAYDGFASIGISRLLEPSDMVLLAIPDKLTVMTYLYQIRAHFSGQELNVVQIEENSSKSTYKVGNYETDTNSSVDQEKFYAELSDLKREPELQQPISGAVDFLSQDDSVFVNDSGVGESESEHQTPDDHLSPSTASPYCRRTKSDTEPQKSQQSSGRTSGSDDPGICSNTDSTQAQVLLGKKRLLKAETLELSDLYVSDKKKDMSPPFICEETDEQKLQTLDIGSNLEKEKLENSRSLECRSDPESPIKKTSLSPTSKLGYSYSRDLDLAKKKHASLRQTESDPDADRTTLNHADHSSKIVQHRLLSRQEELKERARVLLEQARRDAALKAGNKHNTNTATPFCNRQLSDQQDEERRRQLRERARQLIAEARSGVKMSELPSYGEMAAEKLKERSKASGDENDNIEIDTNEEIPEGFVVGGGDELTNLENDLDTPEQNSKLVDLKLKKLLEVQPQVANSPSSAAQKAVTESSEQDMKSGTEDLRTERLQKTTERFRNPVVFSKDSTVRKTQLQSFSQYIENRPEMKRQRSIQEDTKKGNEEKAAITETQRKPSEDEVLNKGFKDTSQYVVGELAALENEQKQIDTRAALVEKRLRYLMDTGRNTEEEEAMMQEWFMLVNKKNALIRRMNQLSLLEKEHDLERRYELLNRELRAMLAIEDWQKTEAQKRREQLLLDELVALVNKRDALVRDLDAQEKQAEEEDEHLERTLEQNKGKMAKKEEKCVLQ
UniProt Q13011: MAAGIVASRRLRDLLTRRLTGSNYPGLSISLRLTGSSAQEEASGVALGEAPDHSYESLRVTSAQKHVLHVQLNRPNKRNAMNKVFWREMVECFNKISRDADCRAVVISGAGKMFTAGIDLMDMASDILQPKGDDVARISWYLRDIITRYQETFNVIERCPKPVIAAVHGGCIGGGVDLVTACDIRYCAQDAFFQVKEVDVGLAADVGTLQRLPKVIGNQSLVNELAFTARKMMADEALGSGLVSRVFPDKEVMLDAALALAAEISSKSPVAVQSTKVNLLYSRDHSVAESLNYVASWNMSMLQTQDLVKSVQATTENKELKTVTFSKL
UniProt Q9NP97, whole entry, looked up: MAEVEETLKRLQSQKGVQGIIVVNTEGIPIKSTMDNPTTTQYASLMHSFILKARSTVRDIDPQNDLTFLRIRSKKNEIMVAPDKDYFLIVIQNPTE
UniProt P24534: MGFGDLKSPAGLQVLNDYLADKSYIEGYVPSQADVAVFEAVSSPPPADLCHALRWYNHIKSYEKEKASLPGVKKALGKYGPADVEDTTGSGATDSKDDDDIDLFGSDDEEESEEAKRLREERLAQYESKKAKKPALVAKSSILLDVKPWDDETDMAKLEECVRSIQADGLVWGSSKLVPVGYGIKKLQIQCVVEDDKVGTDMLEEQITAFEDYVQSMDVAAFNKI
UniProt P33316: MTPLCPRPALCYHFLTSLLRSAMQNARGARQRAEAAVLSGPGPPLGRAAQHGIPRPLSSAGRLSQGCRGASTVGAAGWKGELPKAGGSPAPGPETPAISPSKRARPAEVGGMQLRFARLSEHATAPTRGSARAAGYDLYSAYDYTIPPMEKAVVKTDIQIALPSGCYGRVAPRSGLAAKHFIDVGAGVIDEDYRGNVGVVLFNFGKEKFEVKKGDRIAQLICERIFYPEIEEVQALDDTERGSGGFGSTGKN
UniProt Q7L8W6: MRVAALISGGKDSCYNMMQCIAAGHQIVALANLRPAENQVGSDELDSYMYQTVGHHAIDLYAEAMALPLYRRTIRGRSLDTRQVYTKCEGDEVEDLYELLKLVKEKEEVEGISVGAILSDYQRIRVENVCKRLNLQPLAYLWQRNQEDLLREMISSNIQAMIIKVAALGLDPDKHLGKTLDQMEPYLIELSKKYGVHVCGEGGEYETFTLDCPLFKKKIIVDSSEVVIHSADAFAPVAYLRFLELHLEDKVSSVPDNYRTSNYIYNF
UniProt O75521: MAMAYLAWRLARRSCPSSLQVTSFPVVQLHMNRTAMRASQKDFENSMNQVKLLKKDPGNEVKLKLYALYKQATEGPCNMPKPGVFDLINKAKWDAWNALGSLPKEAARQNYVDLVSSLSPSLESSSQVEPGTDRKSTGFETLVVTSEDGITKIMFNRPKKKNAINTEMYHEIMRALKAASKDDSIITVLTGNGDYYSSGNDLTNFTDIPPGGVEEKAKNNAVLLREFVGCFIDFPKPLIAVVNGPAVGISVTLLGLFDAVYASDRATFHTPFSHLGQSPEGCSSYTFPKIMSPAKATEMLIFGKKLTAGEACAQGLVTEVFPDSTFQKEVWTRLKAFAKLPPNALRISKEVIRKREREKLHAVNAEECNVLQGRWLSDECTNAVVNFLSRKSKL

Compound in one assay: C1CCN(C1)C(=O)NC2=CC=CC(=C2)NC3=NC=C(C(=N3)NCCC4=CN=CN4)Br
The assay can be described thus: log2 fold change, soluble protein after heating vs DMSO (PISA); higher = thermal stabilisation; K562 lysate, 10 uM; active = over 0.2 and 3.5 SD of the protein, either way, in both replicates (recomputed). An outline of the steps: (§1)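 Log-two fold change in thermal stability relative to solvent controls is reported from duplicates. For each sample, crude K562 extract from dounce-homogenised pellets in PBS pH 7.4 with 1 mM MgCl2, at 1 mg/mL protein, was treated with 10 μM compound for 30 min. Aliquots heated for 3 min across 48°C-58°C were pooled, brought to 0.5% NP-40 at 4°C and cleared at 21,000xg for 90 min. The supernatant was quantified by TMTpro 16plex LC-MS/MS with channel sums equalised.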
Consider EIF1B (UniProt O60739), for which the log2 fold change is inactive: -0.028.
Take EDF1 (UniProt O60869): the log2 fold change was inactive: 0.008.
Turning to DRAP1 isoform 2 (UniProt Q14919), the log2 fold change was inactive: -0.012.
As for E2F4 (UniProt Q16254), the log2 fold change is inactive: -0.025.
In the case of EFHD2 (UniProt Q96C19), the log2 fold change is inactive: -0.008.
As to DPP8 (UniProt Q6V1X1), the log2 fold change was inactive: -0.072.
For DSN1 (UniProt Q9H410), the log2 fold change is inactive: -0.034.
Turning to DUS4L (UniProt O95620), the log2 fold change is inactive: -0.019.
For EEF1E1 (UniProt O43324), the log2 fold change is inactive: 0.
On the same count and under the same terms, the same measure for DYM (UniProt Q7RTS9): inactive: -0.03; for EFTUD2 (UniProt Q15029): inactive: -0.003; for EIF2A (UniProt Q9BY44): inactive: -0.012.
Still for that read-out and setting: in the case of EEF1AKMT2, A0A494BZY7 it was inactive: -0.025; in that of DPY19L1, A0A1B0GW05, inactive: -0.012; in that of EDEM1 (UniProt Q92611), inactive: 0.026.
For the target DPYSL2 (UniProt Q16555), the log2 fold change is inactive: -0.077.
The same measure, in the same setting: the same measure for DUS3L (UniProt Q96G46): inactive: -0.012; for DSCC1 (UniProt Q9BVC3): inactive: -0.012; for EHBP1 isoform 2 (UniProt Q8NDI1): inactive: -0.056.
Same read-out and setting: in the case of EDARADD (UniProt Q8WWZ3) it was inactive: -0.035; in that of EFHD1 (UniProt Q9BUP0), inactive: -0.055; in that of DTYMK (UniProt P23919), inactive: 0.01.
Regarding DYNLL2 (UniProt Q96FJ2), the log2 fold change was inactive: 0.016.
Still for that read-out and setting: in the case of DPH7 (UniProt Q9BTV6) it was inactive: -0.004; in that of ECH1 (UniProt Q13011), inactive: -0.009.
Turning to DUSP23 (UniProt Q9BVJ7), the log2 fold change is inactive: -0.036.
On the same count and under the same terms, the same measure for DYNLRB1 (UniProt Q9NP97): inactive: -0.045; for DPP9 isoform 2 (UniProt Q86TI2): inactive: 0.019; for DPP7 (UniProt Q9UHL4): inactive: -0.03.
As for EEF1D isoform 2 (UniProt P29692), the log2 fold change is inactive: -0.009.
Regarding EEF1B2 (UniProt P24534), the log2 fold change is inactive: 0.008.
As to DUT (UniProt P33316), the log2 fold change is inactive: 0.003.
As for EED, A0A5F9ZI63, the log2 fold change is inactive: 0.003.
Still for that read-out and setting: the same measure for DPH6 (UniProt Q7L8W6): inactive: 0.044; for ECT2 (UniProt Q9H8V3): inactive: -0.104.
For the target DUSP3 (UniProt P51452), the log2 fold change was inactive: -0.007.
The same measure, in the same setting: in the case of DYNC1H1 (UniProt Q14204) it was inactive: -0.006.
Still for that read-out and setting: the same measure for EIF1AD (UniProt Q8N9N8): inactive: 0.018; for ECI2 (UniProt O75521): inactive: -0.03.
Take EBNA1BP2 (UniProt Q99848): the log2 fold change is inactive: 0.028.

Compound in a further assay: C1CN(CCC1(CC2=CC=C(C=C2)Cl)N)C3=NC=NC4=C3C=CN4
The assay is described as above. The essentials:
as §1
For EIF1B (UniProt O60739), the log2 fold change is inactive: 0.103.
For the target EDF1 (UniProt O60869), the log2 fold change was inactive: -0.006.
Same read-out and setting: the same measure for DRAP1 isoform 2 (UniProt Q14919): inactive: 0.005; for E2F4 (UniProt Q16254): inactive: 0.008.
Take EFHD2 (UniProt Q96C19): the log2 fold change was inactive: 0.001.
On the same count and under the same terms, the same measure for DPP8 (UniProt Q6V1X1): inactive: -0.071; for DSN1 (UniProt Q9H410): inactive: -0.024; for DUS4L (UniProt O95620): inactive: 0.02.
For EEF1E1 (UniProt O43324), the log2 fold change is inactive: 0.034.
Same read-out and setting: in the case of DYM (UniProt Q7RTS9) it was inactive: 0.119.
Same read-out and setting: in the case of EFTUD2 (UniProt Q15029) it was inactive: -0.01; in that of EIF2A (UniProt Q9BY44), inactive: 0.014; in that of EEF1AKMT2, A0A494BZY7, inactive: 0.03.
Consider DPY19L1, A0A1B0GW05, for which the log2 fold change was inactive: -0.026.
On the same count and under the same terms, the same measure for EDEM1 (UniProt Q92611): inactive: -0.062; for DPYSL2 (UniProt Q16555): inactive: -0.186; for DUS3L (UniProt Q96G46): inactive: -0.007.
Same read-out and setting: in the case of DSCC1 (UniProt Q9BVC3) it was inactive: -0.016; in that of EHBP1 isoform 2 (UniProt Q8NDI1), inactive: -0.013.
Same read-out and setting: the same measure for EDARADD (UniProt Q8WWZ3): inactive: -0.064; for EFHD1 (UniProt Q9BUP0): inactive: 0.105.
For DTYMK (UniProt P23919), the log2 fold change is inactive: -0.027.
Still for that read-out and setting: in the case of DYNLL2 (UniProt Q96FJ2) it was inactive: 0.066; in that of DPH7 (UniProt Q9BTV6), inactive: 0.019.
Still for that read-out and setting: in the case of ECH1 (UniProt Q13011) it was inactive: 0.017; in that of DUSP23 (UniProt Q9BVJ7), inactive: 0.02.
For DYNLRB1 (UniProt Q9NP97), the log2 fold change was inactive: 0.043.
In the case of DPP9 isoform 2 (UniProt Q86TI2), the log2 fold change was inactive: 0.014.
As to DPP7 (UniProt Q9UHL4), the log2 fold change is inactive: 0.043.
Still for that read-out and setting: in the case of EEF1D isoform 2 (UniProt P29692) it was inactive: 0.016; in that of EEF1B2 (UniProt P24534), inactive: -0.006.
Still for that read-out and setting: in the case of DUT (UniProt P33316) it was inactive: 0.011; in that of EED, A0A5F9ZI63, inactive: 0.023; in that of DPH6 (UniProt Q7L8W6), inactive: 0.02.
Regarding ECT2 (UniProt Q9H8V3), the log2 fold change is inactive: -0.1.
On the same count and under the same terms, the same measure for DUSP3 (UniProt P51452): inactive: 0.007; for DYNC1H1 (UniProt Q14204): inactive: 0.011; for EIF1AD (UniProt Q8N9N8): inactive: -0.038.
Still for that read-out and setting: the same measure for ECI2 (UniProt O75521): inactive: 0.045.
Regarding EBNA1BP2 (UniProt Q99848), the log2 fold change was inactive: -0.025.

These data come from the supplement of paper PMC10849652.
